Results as given in paper PMC12702058.
No constants are given. Whether binding was seen depends on the method and setting. Binding seen in cells or lysates may run through a third protein. Some entries that bind do so weakly or less than the wild type. Sequences can lack the tags named with a protein. Values belong to the molecule of their own block, whether it stands above or below them.

Sequences of proteins named here, by UniProt entry; tags and fusion partners are left off. A change or cut given only in a name is not applied to a line headed by its entry. A line that says so, or that is headed by a name, gives the form on record, which may keep a tag or linker.
UniProt Q01628: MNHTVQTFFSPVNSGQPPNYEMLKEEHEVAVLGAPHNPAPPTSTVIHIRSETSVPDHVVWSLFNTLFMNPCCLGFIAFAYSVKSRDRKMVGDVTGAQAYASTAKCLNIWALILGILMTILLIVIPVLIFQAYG
FLAG-IFITM3 mutant lacking the N-terminal amino acids 21 to 57 (Q01628, form named): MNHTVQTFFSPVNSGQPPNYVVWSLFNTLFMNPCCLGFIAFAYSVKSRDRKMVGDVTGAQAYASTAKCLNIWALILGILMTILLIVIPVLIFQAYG

Experiments:
[1] = biological target: T1, FLAG-MARCH8 (Membrane-Associated RING-CH 8) (human) (UniProt Q5T0T0); assay: co-IP; HeLa cells, MARCH8 with endogenous IFITM3; IP lysis buffer, antibody-conjugated agarose beads, 4 °C, 2 h; Western blot
T1 sequence: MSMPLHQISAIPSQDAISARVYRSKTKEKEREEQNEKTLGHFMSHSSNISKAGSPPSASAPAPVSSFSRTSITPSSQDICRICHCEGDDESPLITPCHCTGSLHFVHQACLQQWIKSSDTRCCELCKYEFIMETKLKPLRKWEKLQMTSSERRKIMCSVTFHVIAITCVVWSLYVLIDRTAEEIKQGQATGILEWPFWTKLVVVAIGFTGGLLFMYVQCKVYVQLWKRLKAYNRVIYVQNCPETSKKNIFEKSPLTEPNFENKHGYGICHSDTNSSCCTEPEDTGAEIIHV

[2] = biological target: T2, full-length MARCH8-Myc (human) (UniProt Q5T0T0); assay: co-IP; HEK293T cells cotransfected with MARCH8 and IFITM3 (full length or truncation mutants); IP lysis buffer (50 mM Tris-HCl pH 7.5, 150 mM NaCl, 0.2% Triton X-100, 10% glycerol), antibody-conjugated agarose beads, 4 °C, 2 h; Western blot
T2 sequence: T1 sequence

[3] = biological target: FLAG-IFITM3 mutant lacking the N-terminal amino acids 21 to 57 (human) (UniProt Q01628); assay: as above
[4] = biological target: full-length FLAG-IFITM3 (human) (UniProt Q01628); assay: as above
[5] = biological target: IFITM3 BiFC fusion (human) (UniProt Q01628); assay: split reporter; BiFC: HeLa cells cotransfected with pBiFC-HA-VC155 and pBiFC-FLAG-VN173 constructs, 24 h, confocal imaging

Molecule: full-length FLAG-IFITM3 (from UniProt Q01628 1-133)
binding [2]: binds

B2: MARCH8 BiFC fusion (enzyme, UniProt Q5T0T0 1-291)
chain: T1 sequence
binding [5]: binds

Now from value to molecule:

binding [1]: binds
Molecule: interferon-induced transmembrane protein 3 (IFITM3), endogenous (from UniProt Q01628 1-133)

binding [3]: no binding
binding [4]: binds
B1: full-length MARCH8-Myc (enzyme, UniProt Q5T0T0 1-291)
chain: T1 sequence
